Where a name gives a salt, the structure may show the parent alone. Some of the results follow. This data set is noisy: repeats of one test often differ as much as different tests do.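 Cells: ReNCell VM human fetal ventral-midbrain neural progenitors, differentiated mitogen-free. Blinded raters compared doublecortin-stained (early neurons) or tyrosine hydroxylase-stained (dopaminergic neurons) images with untreated wells, where 0 means no change. After repeats and both raters were averaged, compounds scoring 2 or above became hits for retesting.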

The subject of the first experiment is ReNCell VM. As to the kind of experiment: neuronal differentiation score (DCX+ cell fraction vs untreated, manual image score) (score (-3 to 3)); higher = more neuronal differentiation. The following applies: library: LOPAC; 2 uM; 2 weeks.
Turning to `C[C@H]1C[C@H]2[C@@H]3CCC4=CC(=O)C=C[C@]4(C)[C@@]3(Cl)[C@@H](O)C[C@]2(C)[C@@]1(O)C(=O)CO` [Beclomethasone], the neuronal differentiation score is inactive: 0.
Still for that read-out and setting: then `Cc1cccc(C)c1OCC(C)N` (stereo not drawn) [Mexiletene hydrochloride], with inactive: 0.
Same read-out and setting: next, `O=C(O)CN(CCN(CC(=O)O)CC(=O)O)CCN(CC(=O)O)CC(=O)O` [Diethylenetriaminepentaacetic acid]: inactive: 0; `CCCCN1CCC(n2c(=O)[nH]c3ccccc32)CC1` [NS 521 oxalate]: inactive: 0; `NS(=O)(=O)C#Cc1ccccc1` [Pifithrin-mu]: inactive: 0.
With `NCCNC(=O)c1ccc(Cl)cc1` [Ro 16-6491 hydrochloride], the neuronal differentiation score is inactive: 0.
Same read-out and setting: next, `NCC(O)C1CCCCCCC1` (stereo not drawn) [2-Cyclooctyl-2-hydroxyethylamine hydrochloride]: inactive: 0.

Staying with this experiment, now noted: library: Prestwick; 2 uM; 2 weeks.
For `CC1(C)S[C@@H]2[C@H](NC(=O)Cc3ccccc3)C(=O)N2[C@H]1C(=O)O` [Benzathine benzylpenicillin], the neuronal differentiation score was inactive: 0.
Same read-out and setting: next, `C#C[C@]1(O)CC[C@H]2[C@@H]3CCC4=C(CCC(=O)C4)[C@H]3CC[C@@]21C` [Norethynodrel]: inactive: 0; `CC/C(=C(/CC)c1ccc(O)cc1)c1ccc(O)cc1` [Diethylstilbestrol]: inactive: 0.
On the same count and under the same terms, next, `COc1cnc(NS(=O)(=O)c2ccc(N)cc2)nc1` [Sulfameter]: inactive: 0; `CCCCOc1ccc(CC(=O)NO)cc1` [Bufexamac]: inactive: 0.
On the same count and under the same terms, then `CC(=O)N(CC(C)C(=O)O)c1c(I)cc(I)c(N)c1I` (stereo not drawn) [Iocetamic acid], with inactive: 0.

The same experiment, now with this note: library: Spectrum; 2 uM; 2 weeks.
`CC(C)NCC(O)c1ccc(NS(C)(=O)=O)cc1` (stereo not drawn): the neuronal differentiation score is active: 3.
On the same count and under the same terms, next, `CCc1cc(C(N)=S)ccn1`: inactive: 0; `C[N+](C)(C)CCO.[Cl-]`: inactive: 0.
Same read-out and setting: then `CC(C(=O)O)c1cccc(Oc2ccccc2)c1` (stereo not drawn), with inactive: 0.
Still for that read-out and setting: next, `COc1cc(O)c(C(C)=O)c(O)c1`: inactive: 0; `COc1c(O)cc2c(c1O)[C@@H]1O[C@H](CO)[C@@H](O)[C@H](O)[C@H]1OC2=O`: inactive: 0; `NCCCCN`: inactive: 0.
For `O=C[C@H](O)[C@H](O)CO`, the neuronal differentiation score was inactive: 0.
The same measure, in the same setting: then `O=C1CC(c2ccc(O)cc2)Oc2ccccc21` (stereo not drawn), with inactive: 0; and `NC1CCN(c2c(F)cc3c(=O)c(C(=O)O)cn(C4CC4)c3c2Cl)C1` (stereo not drawn), with inactive: 0; and `CC(C)NCC(O)COc1cccc2[nH]ccc12` (stereo not drawn), with inactive: 0.
For `COC(=O)c1c(C)cc(OC(=O)c2c(C)cc(O)c(C=O)c2O)c(C)c1O`, the neuronal differentiation score is inactive: 0.
On the same count and under the same terms, next, `NC(=O)NO`: inactive: 0; `C[n+]1ccccc1C=NO`: inactive: 1; `CO[C@H]1/C=C/O[C@@]2(C)Oc3c(C)c(O)c4c(O)c(c5c(nc6cc(C)ccn65)c4c3C2=O)NC(=O)/C(C)=C\C=C\[C@H](C)[C@H](O)[C@@H](C)[C@@H](O)[C@@H](C)[C@H](OC(C)=O)[C@@H]1C`: inactive: 0.
With `CN[C@H]1CC[C@@H](c2ccc(Cl)c(Cl)c2)c2ccccc21`, the neuronal differentiation score was inactive: 0.
Take `CC(=O)Oc1cc(OC(C)=O)c2c(c1)O[C@H](c1ccc(OC(C)=O)c(OC(C)=O)c1)[C@H](OC(C)=O)C2`: the neuronal differentiation score is inactive: 0.
On the same count and under the same terms, next, `CCCC(=O)Nc1ccc(OCC(O)CNC(C)C)c(C(C)=O)c1` (stereo not drawn): inactive: 1; `CC(=O)O[C@@H]1C[C@H]2C(C)(C)C(=O)CC[C@]2(C)[C@H]2CC[C@@]3(C)[C@H](c4ccoc4)OC(=O)[C@H]4O[C@]43[C@@]21C`: inactive: 0.
The same measure, in the same setting: then `CC1(C)[C@H]2CC[C@]1(CS(=O)(=O)O)C(=O)C2=Cc1ccc(C=C2C(=O)[C@@]3(CS(=O)(=O)O)CC[C@@H]2C3(C)C)cc1`, with inactive: 0.

Values taken from the supplement of paper PMC4635364.
